## Primary screen of a compound library

From ChEMBL document CHEMBL3988442, “University of Dundee, Small-Polar-MMV Screening Library” (2021).

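Viability assay of Plasmodium falciparum sporozoites; the read-out is not stated. The concentration is filed as 10 mM, unlikely as a test dose, so the dose is not known. Higher reads as lower viability (inferred: compounds with an IC50 in retests scored well above the rest). Strong results were mostly tested again. Of about 34,000 compounds tested this way, about 280 (0.84%) reached 50% or more in at least one test.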

Results are given as percent effect. The record does not define 0% and 100%; most values in the screen are far below 50% and negative numbers occur (in some assays of this library far below -100). Compounds were drawn at random from those tested, without regard to their results. Two or more numbers in one place are separate tests of the same structure; such repeats can differ widely.

compound | effect
N#CCSCCCN1CCCN(C(=O)c2ccccc2)CC1 | -16.93
CC(C)n1nc(CNc2ncccn2)c2c1CN(S(C)(=O)=O)CC2 | 3.908
Brc1cccc(-c2noc(C3COCCO3)n2)c1 (stereo not given) | 5.088
CC(C)CN1C(=O)C2(CCN(Cc3ccoc3)C2)c2ccccc21.O=C(O)C(F)(F)F (stereo not given) | 17.64
CCN(Cc1ccco1)C(C)c1nc(C)no1 (stereo not given) | 5.088
Cn1c(Cn2ccnc2)nnc1C1CCCN(C2CCCCC2)C1 (stereo not given) | -16.35
O=C(c1ccc2[nH]nnc2c1)N1CC[C@H](O)[C@]2(CCCO2)C1 | 2.156
CCOCC(O)CN1CCN(C(=O)c2cc(C)ccc2OC)CC1 (stereo not given) | 7.535
CC1CCN(CC(=O)NC2CCN(C(C)c3ccccc3)CC2)CC1.Cl (stereo not given) | 3.755
Cc1n[nH]c(C)c1C1COCCN1C(=O)c1ccc2c(c1)CCO2 (stereo not given) | -4.331
NC(=O)C1CCCN(c2ccc(CNC(=O)c3cc[nH]n3)cc2)C1 (stereo not given) | 4.374
Cc1c(C(=O)N2CCCC2c2cnn(C)c2)nnn1-c1ccccc1 (stereo not given) | -0.4177
O=C(O)C(F)(F)F.O=C(c1cscn1)N1CCc2c(COCC3CC3)cncc2C1 | -2.7
O=C(O)c1cc(/C=C/c2ccccc2)ncn1 | -7.843
Cc1cccc(N2CCN(CCC(=O)NCc3cccnc3)CC2)c1 | -2.368
[H][C@@]12CN(C(=O)c3cccc(C)n3)C[C@]1([H])OCCN2c1ccc(C)nn1 | 16.86
Cn1cccc1C(=O)NCc1cn2c(n1)CN(c1ncccn1)CC2 | -5.99
O=C(O)C(F)(F)F.[H][C@@]12CN(C(=O)c3cccc(C)n3)C[C@]1([H])[C@@H]2CC(=O)NC(C)C | 9.41
CC(C)(C)C(=O)NCCC(=O)NS(=O)(=O)c1ccc2c(c1)OCCO2 | 1.535
Cc1ccc(N2CCCC(NCc3c(C)noc3C)C2)nn1 (stereo not given) | 5.199
Cc1noc(C)c1-c1cccc(CC2CCN(C(=O)CN)C2)n1 (stereo not given) | 6.995
CCc1n[nH]c(C2CN(C(=O)c3cnc(C)s3)CCO2)n1 (stereo not given) | -5.51 and -8.192 and -10.29
c1nc(CSc2nnc(C3CC3)s2)cs1 | -4.561
COCCN1CCC(c2cncc(-c3cccc(Cl)c3)n2)CC1 | -0.7508
CCOCc1ncn2c1CN(C(=O)Nc1ccccc1CC)CC2 | 3.671
O=C(NC1CC1)C(c1ccccc1)N1CCn2c(nnc2C2CC2)C1 (stereo not given) | 5.243
O=C(O)C(F)(F)F.O=C(O)C(F)(F)F.[H][C@@]12CC(COc3ccccn3)C[C@@]1([H])N(CC1CCOCC1)CCO2 (stereo not given in full) | 2.773
O=C(Cc1ccccn1)N1CCN(C(=O)c2cccc3[nH]ncc23)CC1 | -15.43 and -11.91 and -5.967
CCn1nccc1CNC(=O)C1CCCC1 | -4.798
CC(C)n1nnc(CC(=O)NCC2(c3cccc(F)c3)CCCC2)n1 | 3.086
CS(=O)(=O)NCc1cc2n(n1)CCCN(Cc1cc3ccccc3o1)C2 | -11.58
CC(=O)c1ccc(N2CCCC(CO)(CCOc3ccccc3)C2)nc1 (stereo not given) | 4.362
CCCN1CCN(C(=O)c2scnc2C)CC1 | -8.005
Cc1n[nH]c(C)c1CNCC(O)c1cccc(Cl)c1.Cl (stereo not given) | 0.1098
COc1cc2nc(NCCN3CCNC3=O)cc(C)c2cc1OC | -19.23
Cc1cc(N(C)C)nc(C2(C)CCCN2C(=O)c2cncnc2C)n1 (stereo not given) | 8.116
CC(=O)N1CCCC2(CCN(c3nncs3)C2)C1 (stereo not given) | -1.448
CCN1CC(CN2CCOCC2)Oc2ncccc2C1=O (stereo not given) | 6.411
CC1CN(C)c2ccccc2CN1CCn1cncn1 (stereo not given) | -2.451
CNC(=O)c1cn[nH]c1C1(C)CCCN(Cc2ccccc2OC)C1 (stereo not given) | -4.026
CCn1cnnc1CN(C)Cc1c[nH]nc1-c1ccc(F)cc1 | 0.1095
O=C(c1cccs1)N1CCOCC2(C1)CN(c1ccccc1)C(=O)CO2 (stereo not given) | -13.14 and 3.373 and -7.844
Cc1cnn(CCNCc2ccc(OCc3noc(C)n3)cc2)c1 | -12.5
CCCc1n[nH]c(C2CN(C(=O)CCn3ccccc3=O)CCO2)n1 (stereo not given) | -1.329
CC(C)NC(=O)C1CN(C(=O)c2ccc(F)cc2)CC12CCOCC2 (stereo not given) | 11.62
O=C(NCCc1noc(C2CCCO2)n1)c1cn2ccsc2n1 (stereo not given) | -3.846

The last 5 entries again:

compound	effect
O=C(c1cccs1)N1CCOCC2(C1)CN(c1ccccc1)C(=O)CO2 (stereo not given)	-13.14 and 3.373 and -7.844
Cc1cnn(CCNCc2ccc(OCc3noc(C)n3)cc2)c1	-12.5
CCCc1n[nH]c(C2CN(C(=O)CCn3ccccc3=O)CCO2)n1 (stereo not given)	-1.329
CC(C)NC(=O)C1CN(C(=O)c2ccc(F)cc2)CC12CCOCC2 (stereo not given)	11.62
O=C(NCCc1noc(C2CCCO2)n1)c1cn2ccsc2n1 (stereo not given)	-3.846